According to publication PMC3334898:
No constants are given. Whether binding was seen depends on the method and setting. Binding seen in cells or lysates may run through a third protein. Some entries that bind do so weakly or less than the wild type.

Protein sequences, listed by entry. Tags and fused reporters are not part of them.
UniProt Q5A960: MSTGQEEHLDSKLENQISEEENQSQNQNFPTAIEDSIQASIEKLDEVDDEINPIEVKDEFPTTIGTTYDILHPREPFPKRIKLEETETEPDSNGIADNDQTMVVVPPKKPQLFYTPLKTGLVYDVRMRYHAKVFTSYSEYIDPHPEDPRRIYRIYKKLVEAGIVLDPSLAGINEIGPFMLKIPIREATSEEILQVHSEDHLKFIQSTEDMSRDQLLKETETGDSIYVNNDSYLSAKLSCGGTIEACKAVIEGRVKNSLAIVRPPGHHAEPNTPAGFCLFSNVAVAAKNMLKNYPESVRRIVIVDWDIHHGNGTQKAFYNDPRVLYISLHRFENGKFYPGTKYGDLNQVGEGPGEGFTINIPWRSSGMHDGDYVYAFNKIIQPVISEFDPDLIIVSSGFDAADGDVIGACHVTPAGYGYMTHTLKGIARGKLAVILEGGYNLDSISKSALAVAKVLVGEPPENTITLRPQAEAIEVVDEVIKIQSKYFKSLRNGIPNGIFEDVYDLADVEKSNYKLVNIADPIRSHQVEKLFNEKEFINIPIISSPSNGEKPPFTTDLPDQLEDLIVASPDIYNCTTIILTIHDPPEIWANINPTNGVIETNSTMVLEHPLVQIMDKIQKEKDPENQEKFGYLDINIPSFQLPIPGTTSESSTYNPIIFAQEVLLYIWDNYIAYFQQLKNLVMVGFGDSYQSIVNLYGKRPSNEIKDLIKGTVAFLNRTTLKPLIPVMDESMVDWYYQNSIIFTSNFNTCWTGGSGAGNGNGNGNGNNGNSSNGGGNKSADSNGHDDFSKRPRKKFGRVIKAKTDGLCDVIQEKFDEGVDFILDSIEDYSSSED
UniProt Q59LY1: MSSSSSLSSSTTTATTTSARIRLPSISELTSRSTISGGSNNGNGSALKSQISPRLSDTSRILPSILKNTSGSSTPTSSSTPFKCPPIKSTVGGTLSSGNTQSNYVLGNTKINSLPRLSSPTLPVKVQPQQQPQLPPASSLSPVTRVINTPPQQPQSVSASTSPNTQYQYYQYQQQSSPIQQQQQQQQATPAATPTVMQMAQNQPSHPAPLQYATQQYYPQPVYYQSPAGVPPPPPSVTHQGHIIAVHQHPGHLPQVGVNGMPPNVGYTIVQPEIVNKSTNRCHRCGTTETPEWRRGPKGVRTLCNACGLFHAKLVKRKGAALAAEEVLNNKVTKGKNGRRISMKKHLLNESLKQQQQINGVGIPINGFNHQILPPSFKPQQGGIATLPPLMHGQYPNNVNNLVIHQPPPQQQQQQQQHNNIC

Target: Hda1-TAP (Candida albicans) (UniProt Q5A960)
Assay: co-IP; lysates (10 mg protein) of C. albicans expressing Myc-Brg1 and Hda1-TAP, precipitated with IgG agarose beads, blot with anti-c-Myc; cells grown in YEPMaltose at 25°C or 37°C with or without 10 nM rapamycin

Substance: Myc-Brg1 (from UniProt Q59LY1 1-422)
- binding: binds
